Measurements from “University of Dundee, Small-Polar-MMV Screening Library” (2021), ChEMBL document CHEMBL3988442.

Protein sequences, listed by entry. Tags and fused reporters are not part of them.
UniProt E9BF75, entry or part of it: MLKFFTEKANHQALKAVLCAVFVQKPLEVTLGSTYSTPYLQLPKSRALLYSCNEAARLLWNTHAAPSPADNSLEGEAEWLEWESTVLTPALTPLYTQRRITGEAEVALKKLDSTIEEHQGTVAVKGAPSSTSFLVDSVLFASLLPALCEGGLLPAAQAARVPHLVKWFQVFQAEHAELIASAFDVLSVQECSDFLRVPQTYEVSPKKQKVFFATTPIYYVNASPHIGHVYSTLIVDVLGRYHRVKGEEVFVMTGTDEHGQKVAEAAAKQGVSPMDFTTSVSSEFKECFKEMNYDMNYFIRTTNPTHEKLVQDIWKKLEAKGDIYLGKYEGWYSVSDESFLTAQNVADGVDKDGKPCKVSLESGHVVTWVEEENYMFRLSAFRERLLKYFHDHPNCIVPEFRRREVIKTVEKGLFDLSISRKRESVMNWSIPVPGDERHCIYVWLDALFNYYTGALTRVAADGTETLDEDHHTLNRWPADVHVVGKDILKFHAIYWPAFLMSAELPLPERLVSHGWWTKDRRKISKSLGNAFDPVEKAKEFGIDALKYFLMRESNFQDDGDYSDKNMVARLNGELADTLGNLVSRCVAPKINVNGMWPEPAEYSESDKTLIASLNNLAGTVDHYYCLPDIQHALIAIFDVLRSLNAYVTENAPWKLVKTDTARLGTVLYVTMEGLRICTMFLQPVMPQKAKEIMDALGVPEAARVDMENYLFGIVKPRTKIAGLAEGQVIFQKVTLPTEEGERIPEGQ

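Methionyl-tRNA synthetase (putative), Leishmania donovani (UniProt E9BF75). Primary screen of methionyl-tRNA synthetase; the read-out is not stated. The test concentration is not given. The values are filed as inhibition. Of about 68,000 compounds tested this way, about 24 (0.035%) reached 50% or more in at least one test.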

All values are in %.
The record does not define 0% and 100%; most values in the screen are far below 50% and negative numbers occur (in some assays of this library far below -100).
This is an unselected part of the compounds tested.

Compound	inhibition
Cc1csc(C2(NC(=O)NCCN3CCOCC3)CCCC2)n1	9.511
CC(CNC(=O)NCCCc1cc(N)n(-c2ccccc2)n1)N(C)C (centres undefined)	10.18
COc1cccc(C(=O)N2CCCC2c2ncc3c(n2)CCN(C)C3)c1 (centres undefined)	17.18
Cc1cc2c(cc1NC(=O)NCC(C)C)OCO2	6.954
Cc1ccnn1CCC(=O)N1C[C@@H](O)[C@H](Oc2cccc(F)c2)C1	16.08
O=C(Nc1ccccc1)N1C[C@@H]2OCCN(C(=O)c3ccco3)[C@@H]2C1	12.33
Cc1ccccc1C(=O)Nc1cnn(CCN2CCOCC2)c1	19.13
CC(C)OCCN1CCC(Nc2ncccn2)CC1	16.51
Cc1occc1C(=O)N1CCc2ncnc(C3CCOC3)c2CC1 (centres undefined)	14.29
CCOCCCNC(=O)c1cc(C)nc(N2CCCCC2)n1	5.276
CN(C)S(=O)(=O)N1C[C@@H]2CC[C@H](C1)N(CCC(=O)NCc1ccco1)C2	24.84
O=C(NCCOc1cccc(Cl)c1)C1CC(=O)N(CC2CC2)C1 (centres undefined)	0
Cc1ccccc1C1(CNCc2cnc(N3CCOCC3)nc2)CC1	14.14
COc1ccc(N2CCCC3(C2)CN(c2nncs2)CCO3)cc1 (centres undefined)	9.22
CC(C)NC(=O)c1nc2c(s1)CCCN2C(C)C	13.7
COCCN1CCC2(CC1)CC(c1cccnc1)C(=O)N2C (centres undefined)	12.02
CCOCCc1nc(Cc2ccccc2)n[nH]1	15.23
CCC(=O)N1CCC(c2nc3ccc(NC(C)C)cn3n2)CC1	6.667
COc1cc(CNc2cc(-c3ccoc3C)nn2CCO)ccc1F	12.57
CC(=O)Nc1cccc(CNC(=O)N(C)Cc2ccccc2)c1	13.46
C[S+]([O-])c1nncn1CC(=O)c1ccc2c(c1)CCO2 (centres undefined)	9.294
NC(=O)COc1cccc(Cn2cc(Br)cn2)c1	9.218
c1ccc2c(N3CCCCC3Cn3cncn3)ncnc2c1 (centres undefined)	14.63
CN1CCOC(CN(C(=O)CCc2cnn(C)c2)c2nccs2)C1 (centres undefined)	24.44
Cc1nnc(CCNC(=O)Nc2ccc(S(C)(=O)=O)cc2)[nH]1	-0.6969
CN(C)c1cc2c(nn1)CCN(C(=O)c1cc3ccccc3o1)C2	16.3
CC(NC(=O)Nc1ccc(F)c(F)c1)c1nc[nH]n1 (centres undefined)	7.829
C[C@]1(O)CCN(Cc2nccs2)C[C@@H]1Oc1cccc(F)c1	12
CCCC(O)CN1CCC(=O)N(Cc2ccccc2)Cc2ccccc21 (centres undefined)	11.78
CC(C)CCN1CCC2(CCCN(c3nncs3)C2)C1 (centres undefined)	2.405
COc1cccc(NC(=O)N2CCC(O)(C(F)(F)F)C2)c1 (centres undefined)	20.92
O=S(=O)(CCN1CCCC1Cn1cccn1)c1ccccc1 (centres undefined)	6.46
CCS(=O)(=O)N1CCCC2(COCCN(c3nnc(C)o3)C2)C1 (centres undefined)	10.22
Cc1cc(NC(=O)N(C)C2CCN(c3ccccc3F)C2=O)n(C)n1 (centres undefined)	8.696
Cn1cc(N2CCCC(SCc3ccco3)C2=O)cn1 (centres undefined)	10.76
O=C1CC2(CCSC2)C(=O)N1Cc1ncc(-c2cccc(F)c2)o1 (centres undefined)	13.18
COc1ccc(CN2CCC3(CCCN(C)C3=O)C2)c(OC)c1C (centres undefined)	11.27
Cc1cc(-c2ccc(=O)n(CCNC(=O)C3CCCCC3)n2)c(C)o1	13.52
CCN(CC)c1nc(Nc2cccc(C(C)O)c2)nc2ccccc12 (centres undefined)	16.71
CCN(CC)C1(Cc2cc(COC)on2)COC1	15.79
Cc1nc(NC(=O)CNC(=O)c2c(F)cccc2Cl)n[nH]1	18.31
OC(CNc1ncnc2c1CCNCC2)C(F)(F)F (centres undefined)	10.48
CC(C)c1cnc(CN(C)C2CCN(CCc3ccccn3)C2)o1 (centres undefined)	0.7916
CC(C)c1nnc2ccc(N3CCC(C(=O)O)CC3)nn12	15.45
CC(=O)N1Cc2ccccc2CC2(CCCCN2C)C1 (centres undefined)	8.571
Cc1ccc(C(=O)NCCNC(=O)c2cncnc2C)cc1F	4.819
CNc1cc(N2CCC(O)(CNC(=O)c3ccc(C)nc3)C2)ncn1 (centres undefined)	12.5
Cc1nc2c(C#N)cnn2c(C)c1CCC(=O)N(C)C1CC1	14.75
O=C1CC[C@H]2CN(c3ncc(F)cn3)CC[C@H]2N1CCc1ccccn1	4.514
CCOCC(=O)NCC(Cc1cccc(F)c1)n1cccc1 (centres undefined)	5.036
O=C(O)c1cc(S(=O)(=O)N2CCOc3ccccc32)ccc1Br	3.741
Cc1nc(C)n(CC2CN(Cc3nccs3)Cc3nccn3C2)n1 (centres undefined)	1.031
COc1ccc(Br)cc1NCC(=O)NC(C)(C#N)C1CC1 (centres undefined)	15.54
CCn1cnnc1C1CCN(C(=O)c2cccc(N(C)C)c2)CC1	17.46
Cc1noc(C)c1CN(C)C(=O)COc1cccc(C#N)c1	10.14
CC(C)c1ccc(/C=C/CC(=O)NC2CCN(C(N)=O)C2)cc1 (centres undefined)	17.22
Cc1ncsc1CN1C[C@@H]2COC[C@]2(COc2ccc(C#N)cn2)C1	7.5
Cc1cn2c(CN(C)C(=O)c3ncoc3C)c(C)nc2s1	11.41
CC(=O)N1CCN(Cc2ccncc2)CC2(CC(=O)N(C)C2)C1 (centres undefined)	18.91
CN(Cc1ccco1)C(=O)NCc1nnc2n1CCC2	6.522
O=C(c1csc(-c2cccs2)n1)N1CCCC1Cn1cccn1 (centres undefined)	16.54
COCCN1CCN(C(C)c2nc(C3CC3)no2)CC1 (centres undefined)	3.492
CCn1cc(NC(=O)NCC(C)N2CCCC2)cn1 (centres undefined)	12.68
CCCc1nc(C)c(C(=O)NS(=O)(=O)c2cccnc2)s1	10.33
Cc1noc(C)c1CN1CCCC2(CCN(C(=O)CC3CC3)C2)C1 (centres undefined)	5.724
CC(=O)N1CCN(C(=O)CNc2cccc(OC(F)F)c2C)CC1	2.899
CC(C)c1n[nH]c(C(=O)NC(C)c2ccncc2)c1Br (centres undefined)	6.667
CCS(=O)(=O)CCSc1ccc(Br)cc1	20.92

Once more, the final 5:

{"compound": "CCCc1nc(C)c(C(=O)NS(=O)(=O)c2cccnc2)s1", "inhibition": 10.33}
{"compound": "Cc1noc(C)c1CN1CCCC2(CCN(C(=O)CC3CC3)C2)C1", "stereo": "centres undefined", "inhibition": 5.724}
{"compound": "CC(=O)N1CCN(C(=O)CNc2cccc(OC(F)F)c2C)CC1", "inhibition": 2.899}
{"compound": "CC(C)c1n[nH]c(C(=O)NC(C)c2ccncc2)c1Br", "stereo": "centres undefined", "inhibition": 6.667}
{"compound": "CCS(=O)(=O)CCSc1ccc(Br)cc1", "inhibition": 20.92}